Assay results reported in paper doi:10.1101/2023.01.27.525918 (bioRxiv, 2023).
Substitutions are numbered along the chain they refer to. No constants are given. Whether binding was seen depends on the method and setting. For part of these data: In cells and extracts the contact can be indirect. Some results given as binding are weak or reduced against the parent protein; the word gives no strength. For part of these data: Sequences can lack the tags named with a protein.

Sequences of proteins named here, by UniProt entry; tags and fusion partners are left off. A change or cut given only in a name is not applied to a line headed by its entry.
UniProt Q96AP4, whole entry: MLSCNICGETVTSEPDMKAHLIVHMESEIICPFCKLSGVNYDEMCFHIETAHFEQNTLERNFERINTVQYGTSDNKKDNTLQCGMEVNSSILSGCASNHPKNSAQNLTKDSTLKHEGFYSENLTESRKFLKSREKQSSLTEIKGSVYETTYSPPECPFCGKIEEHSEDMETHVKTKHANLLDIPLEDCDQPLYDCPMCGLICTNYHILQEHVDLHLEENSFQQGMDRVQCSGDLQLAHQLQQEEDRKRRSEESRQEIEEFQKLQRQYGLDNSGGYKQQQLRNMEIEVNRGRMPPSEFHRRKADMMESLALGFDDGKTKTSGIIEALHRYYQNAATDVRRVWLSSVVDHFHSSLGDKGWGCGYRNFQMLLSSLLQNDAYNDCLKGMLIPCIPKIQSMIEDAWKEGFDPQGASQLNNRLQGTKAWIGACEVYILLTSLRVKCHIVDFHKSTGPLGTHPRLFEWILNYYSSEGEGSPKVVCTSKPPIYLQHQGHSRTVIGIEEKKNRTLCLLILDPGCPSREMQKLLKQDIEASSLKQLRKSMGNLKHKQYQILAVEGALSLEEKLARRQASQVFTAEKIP
UniProt P15927, whole entry: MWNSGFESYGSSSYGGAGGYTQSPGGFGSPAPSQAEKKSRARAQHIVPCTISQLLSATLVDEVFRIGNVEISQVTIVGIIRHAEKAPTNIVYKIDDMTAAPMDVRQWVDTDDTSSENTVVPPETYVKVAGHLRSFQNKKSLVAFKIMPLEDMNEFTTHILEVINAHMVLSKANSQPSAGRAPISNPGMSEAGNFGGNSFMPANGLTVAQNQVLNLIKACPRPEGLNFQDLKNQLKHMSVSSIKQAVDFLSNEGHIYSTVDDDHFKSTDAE

What was measured:
[1] = biological target: T1, FLAG-RFWD3 C315A (UniProt Q6PCD5); assay: co-IP
T1 sequence: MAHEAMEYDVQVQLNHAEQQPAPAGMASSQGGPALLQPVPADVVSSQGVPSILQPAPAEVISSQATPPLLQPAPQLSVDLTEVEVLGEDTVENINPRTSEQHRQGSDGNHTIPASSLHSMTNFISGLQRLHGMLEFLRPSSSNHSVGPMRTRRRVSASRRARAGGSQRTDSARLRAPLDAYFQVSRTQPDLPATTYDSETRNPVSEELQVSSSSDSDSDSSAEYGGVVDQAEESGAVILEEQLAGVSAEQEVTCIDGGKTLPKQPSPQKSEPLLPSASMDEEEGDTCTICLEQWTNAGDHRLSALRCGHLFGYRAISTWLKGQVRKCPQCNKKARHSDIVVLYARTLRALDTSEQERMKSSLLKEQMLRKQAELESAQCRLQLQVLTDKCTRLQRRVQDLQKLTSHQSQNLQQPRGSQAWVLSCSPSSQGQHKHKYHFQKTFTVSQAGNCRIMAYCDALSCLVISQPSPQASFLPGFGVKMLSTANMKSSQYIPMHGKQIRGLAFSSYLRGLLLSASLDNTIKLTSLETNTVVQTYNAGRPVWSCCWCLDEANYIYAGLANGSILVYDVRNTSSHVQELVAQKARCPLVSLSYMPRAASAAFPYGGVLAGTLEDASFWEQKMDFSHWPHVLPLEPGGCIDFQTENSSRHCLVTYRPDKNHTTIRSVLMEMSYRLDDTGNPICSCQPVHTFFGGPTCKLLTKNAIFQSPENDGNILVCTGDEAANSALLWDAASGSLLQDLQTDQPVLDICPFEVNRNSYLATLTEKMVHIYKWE

[2] = biological target: T2, FLAG-RFWD3 (UniProt Q6PCD5); assay: co-IP
T2 sequence: T1 sequence with A315C

[3] = biological target: Zinc finger-containing Ub peptidase 1 (ZUP1), full length, untagged (human) (UniProt Q96AP4); assay: SEC + SEC-MALS

| Substance | binding [1] | binding [2] | binding [3] |
| --- | --- | --- | --- |
| RPA32, endogenous (from UniProt P15927 1-270) | binds | binds |  |
| Zinc finger-containing Ub peptidase 1 (ZUP1), full length, untagged (from UniProt Q96AP4 1-578) (enzyme) |  |  | no binding |
